Reference: article PMC11372060, “Two KaiABC systems control circadian oscillations in one cyanobacterium” (Nature Communications, 2024)
Results are given in words; binding and its absence hold for the method and conditions named. Binding seen in cells or lysates may run through a third protein. A yes stands for co-enrichment or nearness to the bait. Other partners may have been found. No binding means not detected with the bait. Where a sequence is shown, tags or fusion partners need not be part of it.

Biological target: T1, FLAG-tagged KaiC1 (Synechocystis sp. PCC 6803) (UniProt P74646)
T1 sequence: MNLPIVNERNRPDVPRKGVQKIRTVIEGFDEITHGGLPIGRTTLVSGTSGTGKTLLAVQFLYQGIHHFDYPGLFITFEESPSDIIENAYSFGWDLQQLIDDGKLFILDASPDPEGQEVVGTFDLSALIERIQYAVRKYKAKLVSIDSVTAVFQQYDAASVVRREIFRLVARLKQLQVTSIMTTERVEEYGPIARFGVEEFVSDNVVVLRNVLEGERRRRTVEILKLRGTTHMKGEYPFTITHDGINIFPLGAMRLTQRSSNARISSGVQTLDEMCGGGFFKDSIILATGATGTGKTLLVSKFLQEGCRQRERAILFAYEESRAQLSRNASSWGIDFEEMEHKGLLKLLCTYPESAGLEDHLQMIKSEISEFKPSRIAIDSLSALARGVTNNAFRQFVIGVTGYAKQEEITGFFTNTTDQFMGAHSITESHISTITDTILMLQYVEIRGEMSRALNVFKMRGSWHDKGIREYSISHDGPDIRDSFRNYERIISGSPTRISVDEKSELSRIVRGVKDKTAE
Assay: affinity purification with mass spectrometry; FLAG-tagged bait in Synechocystis (PCC-M); extract solubilised with n-dodecyl-β-maltoside, buffer with 1 mM ATP; Anti-Flag M2 magnetic beads; eluates by nanoLC-MS/MS; FLAG-sfGFP strain as control

binding: no binding
Substance: KaiA3 (Sll0485), endogenous in Synechocystis
